Values from PubChem BioAssay AID504744 (Drosophila RNAi Screening Center, 2011).

Screen: 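Identify dsRNAs that increase or decrease phospho-dAkt after insulin treatment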 (primary screen)
Cells: Drosophila Kc167 cells
Knock-down reagent: long dsRNA against Drosophila genes, 250 ng dsRNA per well of a 384-well plate
Duration: 3 days of knock-down, then overnight serum-free starvation before stimulation
Challenge: bovine insulin at 387 nM for 10 minutes after 12 h without serum
Detection: 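Per-well phospho-dAkt level from an in-cell fluorescent antibody stain, divided by a DNA-dye signal; log2 residuals turned into z-scores that take cell number into account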
Call rule: 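Under insulin, a gene counts as a hit if the average z-score of two replicates lies above 2.5 or below -2.5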
The screen tested about 23,000 reagents; below is an unselected part of those that have a named target and a result. Over the whole deposit, 98 (0.43%) are marked active. 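Only hit calls are given; the phospho-dAkt signals, z-scores and hit direction were not deposited.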 A plus sign joins genes that one reagent is predicted to hit.

| Gene | PubChem SID | Call |
| --- | --- | --- |
| CG7213 | SID104190579 | inactive |
| or (orange) | SID104184121 | inactive |
| CG17544 | SID104182416 | inactive |
| CG13110 | SID104182000 | inactive |
| Mal-A4 (Maltase A4) | SID104187028 | inactive |
| CG14797 | SID104197747 | inactive |
| CG7888 | SID104190718 | inactive |
| Qsox2 (Quiescin sulfhydryl oxidase 2) | SID104195079 | inactive |
| CG4476 | SID104190216 | inactive |
| CG11426 | SID104191450 | inactive |
| CG8613 | SID104187014 | inactive |
| bdg (bedraggled) | SID104186928 | inactive |
| mad2 | SID104190066 | inactive |
| EMC2B + EMC2A | SID104195033 | inactive |
| CG14322 | SID104194593 | inactive |
| CG16700 | SID104199547 | inactive |
| Alg2 (ALG2, alpha-1,3/1,6-mannosyltransferase) | SID104188090 | inactive |
| Paip2 (polyA-binding protein interacting protein 2) | SID104194296 | inactive |
| CG10486 | SID104189527 | inactive |
| CG4452 | SID104190214 | inactive |
| ppk26 (pickpocket 26) | SID104190783 | inactive |
| CG10991 (retired record) | SID104191948 | inactive |
| E(bx) (Enhancer of bithorax) | SID104187964 | inactive |
| E(bx) (Enhancer of bithorax) | SID104188301 | inactive |
| E(bx) (Enhancer of bithorax) | SID104188375 | inactive |
| Polr2E (RNA polymerase II, I and III subunit E) | SID104185892 | inactive |
| CG31249 | SID104196040 | inactive |
| udd (under-developed) | SID104186512 | inactive |
| Mzt1 (Mitotic spindle organizing protein 1) | SID104187771 | inactive |
| CG11664 | SID104198442 | inactive |
| NimB5 (Nimrod B5) | SID104181677 | inactive |
| CG1545 | SID104201250 | inactive |
| CG11807 | SID104185879 | inactive |
| CG14500 | SID104186263 | inactive |
| SerRS-m (Seryl-tRNA synthetase, mitochondrial) | SID104193888 | inactive |

10 neighbouring reagents from above:
| Gene | PubChem SID | Call |
| --- | --- | --- |
| E(bx) (Enhancer of bithorax) | SID104187964 | inactive |
| E(bx) (Enhancer of bithorax) | SID104188301 | inactive |
| E(bx) (Enhancer of bithorax) | SID104188375 | inactive |
| Polr2E (RNA polymerase II, I and III subunit E) | SID104185892 | inactive |
| CG31249 | SID104196040 | inactive |
| udd (under-developed) | SID104186512 | inactive |
| Mzt1 (Mitotic spindle organizing protein 1) | SID104187771 | inactive |
| CG11664 | SID104198442 | inactive |
| NimB5 (Nimrod B5) | SID104181677 | inactive |
| CG1545 | SID104201250 | inactive |

The list goes on:
| Gene | PubChem SID | Call |
| --- | --- | --- |
| CG10340 | SID104194024 | inactive |
| LysP (Lysozyme P) | SID104188468 | inactive |
| Tim17a2 | SID104192044 | inactive |
| CG10513 | SID104194040 | inactive |
| CG11906 | SID104185888 | inactive |
| Bulli | SID104190766 | inactive |
| CG3777 | SID104198281 | inactive |
| CG33172 | SID104201452 | inactive |
| CG8209 | SID104190762 | inactive |
| CG32821 (retired record) | SID104201982 | inactive |
| mRpS11 (mitochondrial ribosomal protein S11) | SID104195524 | inactive |
| CG34203 | SID104183647 | inactive |
| CG14864 | SID104194779 | inactive |
| RpL26 (Ribosomal protein L26) | SID104190518 | inactive |
| CG5149 | SID104182611 | inactive |
| Hsp67Ba (Heat shock gene 67Ba) | SID104190983 | inactive |
| Spt20 | SID104190072 | inactive |
| Prx6c (Peroxiredoxin 6c) | SID104185872 | inactive |
| CG32071 | SID104201810 | inactive |
| alpha-Man-IIa (alpha-Mannosidase class II a) | SID104195185 | inactive |
| CG14247 | SID104194534 | inactive |
| CG13049 | SID104189722 | inactive |
| Arr1 (Arrestin 1) | SID104181659 | inactive |
| CG15005 | SID104188251 | inactive |
| CG9701 | SID104190885 | inactive |
| CG6726 | SID104195893 | inactive |
| mthl8 (methuselah-like 8) | SID104188003 | inactive |
| mthl8 (methuselah-like 8) | SID104188103 | inactive |
| Proc (Proctolin) | SID104182801 | inactive |
